This is one part of the list.
B1: il2ra_site1_1z92_normal_mot_HHH_b1_06519_000000232_0001_23_40_H_._HHH_b1_01718_0001_0000100003_0000001_0 (protein)
chain: SSSSDERARELVEFLLRDARLLAEHGNRRAIEWIFELVRALLRAIGDPEVEEILEEIEELGSSSS
B2: il2ra_site1_1z92_normal_mot_HHH_b2_00494_000000030_0001_41_54_H_._HHH_b2_03017_af2_0001_0000100004_0000001_1 (protein)
chain: SSSSSSDKTEEVQHLFHEAARIRDKEEARQVLEEALELAREAGNEELAKDIEQYLEFLSSSSSSS
B3: il2ra_site2_3nfp_normal_mot_HHH_b1_05392_000000081_0001_38_55_H_._HHH_b2_06351_af2_0001_0000100004_0000001_0 (protein)
chain: SSSSSELEELLREAEELLEEGDPFEAAQVLLKAHEIALERNDEEAIRIIAEVYEELVKLYNSSSS
B4: il2ra_site1_1z92_sap_12_mot_HHH_b1_02460_000000277_0001_1_17_H_._HHH_b1_04024_af2_0001_0000400020_0000001_0_0001_af2pred_0001_af2pred_1_swapped (protein)
chain: PEELAREARELLEKGNPEEAEKVLRELAREQGSEEAFKRDLEKAEEFLGDPELALKALIRALATF
B5: il2ra_site2_3nfp_sap_14_mot_HHH_b1_07674_000000021_0001_42_55_H_._HHH_b2_04277_af2_0001_0000200006_0000001_0_0001 (protein)
chain: SSSSDEIEELLNRIFELLQQGDLEEAEELIEEVRRLAEELGDERLLRAVQLLTAALKLRASSSSS
B6: il2ra_site2_3nfp_normal_mot_HHH_b2_04451_000000238_0001_21_37_H_._HHH_b1_07051_af2_0001_0000200015_0000001_0 (protein)
chain: SSSSEEEEVRELLEEARELLEEGDKYEALELVAEASELASKKNNEELARLILELFEEIQRLSSSS
B7: il2ra_site1_1z92_normal_mot_HHH_b1_00368_000000203_0001_23_39_H_._HHH_b1_03388_af2_0001_0000300049_0000001_0_af2pred_0001_af2pred_1 (protein)
chain: SSSSDEKLEHNARIVVEMLVEIARLSEEDQEELEELAKELVERGVDLRELLRILNELALELSSSS
B8: il2ra_site2_3nfp_sap_26_mot_HHH_b1_04180_000000024_0001_19_35_H_._HHH_b2_05417_0001_0001100114_0000001_0_0001_af2pred_0001_1_af2pred_swapped (protein)
chain: SSSSSDEEEEEVERLLEEAKEIEDKHELFAVLLLAYQVAEEAGDEELRRRVEELARELLSSSSSS
B9: il2ra_site1_1z92_sap_17_mot_HHH_b1_00368_000000203_0001_23_39_H_._HHH_b2_04234_0001_0000100010_0000001_0_0001_af2pred_0001_af2pred_1 (protein)
chain: SSSSDEEEAERLYHLAAEALERRDEELLRELLELVEELLEKTGDPRIEKLLKLIEEYLEAHSSSS
B10: il2ra_site1_2b5i_sap_19_mot_HHH_b1_07515_af2_000000276_0001_42_54_H_._HHH_b1_04581_0001_0000200012_0000001_0_0001_af2pred_dldesign_0_af2pred (protein)
chain: SSSSDPKAEIKKLLEEAKKLKEEGKKREALETLEEAYKLAAEAEDEELYDEVEELAKELLSSSSS
B11: il2ra_site1_3nfp_normal_mot_HHH_b1_02167_af2_000000151_0001_18_34_H_._HHH_b2_02051_0001_0000200007_0000001_0 (protein)
chain: SSSSDAEELIEEYERELKELLKEGDTQRAARVLEEAIRLATELDNPELAQRLYELARELIKSSSS
B12: il2ra_site1_1z92_normal_mot_01209686ea234b34325f918445e6eade_0001_af2_000000144_0001_18_33_H_._966a9f62293634969225d85b517b1661_0001_1_0001_0000200019_0000001_0 … (protein)
chain: SVEEQLEELLKRNEEEAKELAIELAARIADAPPEEIRKSLELLERLTGDPRHAVRNLIIFARNLE
B13: il2ra_site1_3nfp_sap_20_mot_922575b2e9738a49cb663a995786872c_0001_af2_000000130_0001_1_15_H_._HHH_b1_02605_0001_0000400030_0000001_0_0001_af2pred_0001_af2pred_1 … (protein)
chain: SSSSSEAEEIVQELLERVEELLRKGNPEEAERLFEEAMKVALKRNDKEALELVKRWVREASSSSS
B14: il2ra_site1_3nfp_normal_mot_HHH_b2_06110_000000263_0001_43_57_H_._HHH_b1_04304_af2_0001_0000100002_0000001_0_af2pred_0001_af2pred (protein)
chain: SSSSSDLAREFERIAREVQRLLKEGDQERAEELIEELEEIAEKANDEAAKLFVERLKKKASSSSS
B15: il2ra_site1_3nfp_sap_23_mot_0eddeacbb14b769e73e254714f31e2f9_0001_af2_000000052_0001_37_51_H_._aceb0566c4959a1d3b0eec5718b8dc8a_0001_0002_0000200010_0000001_0_0 … (protein)
chain: SSSSSSSSERFFEDAERAAELEGDEETLEELRELRERFEKEGDSRYAQRVYKLLRELISSSSSSS
B16: il2ra_site2_3nfp_sap_14_mot_HHH_b1_03873_000000295_0001_37_55_H_._HHH_b1_02139_0001_0000600022_0000001_0_0001 (protein)
chain: SSSSSDEHHEVWELSHEAFELARKGNPEEAKEVLEEALEIAERANDRVAERAVREALEALSSSSS
B17: il2ra_site1_2b5i_normal_mot_0e5a94e4a5addaac739760efb25f0f5d_0001_000000289_0001_18_32_H_._HHH_b1_01234_0001_0000100009_0000001_0 (protein)
chain: SSSDEAQEIARYLNQAVFELVFELGLSSEQAKELVRLAWRLAVRGISEEEAEEILRELAEKLSSS
B18: il2ra_site1_3nfp_sap_17_mot_3cfacc6722bd33c9c25ec9075f684c77_0001_af2_000000257_0001_17_31_H_._HHH_b1_05697_0001_0000500010_0000001_0_0001_af2pred_0001_af2pred_ … (protein)
chain: NLVERVIRDLRRLGDPKAEELAEILEELLRRGVPPREVLEIAARVAEELGDPDMARDLERFAKKA

The binders below were run against il2ra, P01589 (assay: yeast display titration).

Apparent Kd, inactive:
B1 no binding seen, B2 no binding seen, B3 no binding seen, B4 > 949 nM, B5 no binding seen, B6 no binding seen, B7 no binding seen, B8 no binding seen, B9 no binding seen, B10 no binding seen, B11 no binding seen, B12 no binding seen, B13 no binding seen, B14 no binding seen, B15 no binding seen, B16 no binding seen, B17 no binding seen, B18 no binding seen

— paper PMC10163288
